# Data: ChEMBL document CHEMBL4673174, “meta-Substituted benzenesulfonamide: a potent scaffold for the development of metallo-beta-lactamase ImiS inhibitors” (RSC Med Chem, 2020)
# Tested on: Escherichia coli
# Experiment: Antibacterial activity against Escherichia coli BL21 (DE3) assessed as inhibition of bacterial growth incubated for 16 hrs by CLSI broth microdilution method
# Type: functional
smiles,measurement,value
C[C@@H](O)[C@H]1C(=O)N2C(C(=O)O)=C(S[C@@H]3CN[C@H](C(=O)N(C)C)C3)[C@H](C)[C@H]12 [MEROPENEM],MIC,0.0375 µg/mL
